# Test results published in patent publication US20230192835A1.
# Numbering of substitutions follows the chain as printed. Names and notes keep the numbering of the source. These are yes or no findings as the source states them, for the method shown. Some entries that bind do so weakly or less than the wild type.
# T1: human TL1A (Fitzgerald, Prod. #30R-AT070) (human) (UniProt O95150)
# T1 sequence (biotinylated with EZ-Link Sulfo-NHS-LC-Biotin where used as soluble antigen, looked up): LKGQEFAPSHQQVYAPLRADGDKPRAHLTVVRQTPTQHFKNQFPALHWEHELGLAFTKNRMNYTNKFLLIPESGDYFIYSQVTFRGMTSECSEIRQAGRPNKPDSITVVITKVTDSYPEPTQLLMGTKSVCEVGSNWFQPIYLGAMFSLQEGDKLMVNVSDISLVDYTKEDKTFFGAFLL
# B1: H3-7 (V102M) Fab (Fab, V domains shown)
# VH: QVQLVQSGAEVKKPGASVKVSCKASGFDIQDTYMHWVRQAPGQGLEWMGRIDPASGHTKYDPKFQVRVTMTRDTSTSTVYMELSSLRSEDTAVYYCARSGGLPDMWGQGTTVTVSS
# VL: EIVLTQSPGTLSLSPGERATLSCRASSSVSYMYWYQQKPGQAPRLLIYATSNLASGIPDRFSGSGSGTDFTLTISRLEPEDFAVYYCQQWSGNPRTFGGGTKLEIK
# B2: H3-7 (V102K) Fab (Fab, V domains shown)
# VH: B1 VH with M105K
# VL: B1 VL
# B3: clone 1-3 Fab (Fab, V domains shown)
# VH: B1 VH with V20L, R72T, A97S, M105V
# VL: B1 VL with A19V, L21M, L45P, L46W, F70Y
# B4: clone 2-3 Fab (Fab, V domains shown)
# VH: B1 VH with V20L, R72T, A97S, M105V
# VL: B1 VL with L45P, L46W, F70Y
# B5: clone 21 Fab (Fab, V domains shown)
# VH: B1 VH with V20L, R72T, A97S, M105V
# VL: B1 VL with L46W, F70Y
# B6: clone 17-2 Fab (Fab, V domains shown)
# VH: B1 VH with V20L, A97S, M105V
# VL: B1 VL with I57V
# B7: clone 10-1 Fab (Fab, V domains shown)
# VH: B1 VH with V20L, A97S, M105V
# VL: B1 VL with I57V, F70Y
# B8: clone 13-2 Fab (Fab, V domains shown)
# VH: B1 VH with V20L, M105V
# VL: B1 VL with L45P, L46W, I57V, F70Y
# B9: clone 19-5 Fab (Fab, V domains shown)
# VH: B1 VH with A97S, M105V
# VL: B1 VL with I57V, F70Y
# B10: clone 5-2 Fab (Fab, V domains shown)
# VH: B1 VH with V20L, A97S, M105V
# VL: B1 VL with A19V, L21M, L45P, L46W, I57V, F70Y
# B11: clone 27 Fab (Fab, V domains shown)
# VH: B1 VH with R72T, A97S, M105V
# VL: B1 VL with L45P, I57V, F70Y
# B12: clone 9-1 Fab (Fab, V domains shown)
# VH: B1 VH with V20L, A97S, M105V
# VL: B1 VL with L45P, L46W, I57V
# B13: clone 1-4 Fab (Fab, V domains shown)
# VH: B1 VH with V20L, R72T, A97S, M105V
# VL: B1 VL with A19V, L21M, L46W, F70Y
# B14: clone 5-1 Fab (Fab, V domains shown)
# VH: B1 VH with V20L, A97S, M105V
# VL: B1 VL with L45P, L46W, I57V, F70Y
# B15: clone 26 Fab (Fab, V domains shown)
# VH: B1 VH with R72T, A97S, M105V
# VL: B1 VL with L45P, L46W, I57V, F70Y
# B16: clone 19 Fab (Fab, V domains shown)
# VH: B1 VH with V20L, R72T, A97S, M105V
# VL: B1 VL with F70Y
# B17: clone 3-4 Fab (Fab, V domains shown)
# VH: B1 VH with V20L, R72T, A97S, M105V
# VL: B1 VL with L45P, L46W, I57V
# B18: clone 22 Fab (Fab, V domains shown)
# VH: B1 VH with V20L, R72T, A97S, M105V
# VL: B1 VL with A19V, L21M, L45P, L46W, I57V
# B19: clone 16-2 Fab (Fab, V domains shown)
# VH: B1 VH with V20L, A97S, M105V
# VL: B1 VL with F70Y
# B20: clone 20-7 Fab (Fab, V domains shown)
# VH: B1 VH with V20L, M105V
# VL: B1 VL with I57V, F70Y
# B21: clone 7-4 Fab (Fab, V domains shown)
# VH: B1 VH with V20L, R72T, A97S, M105V
# VL: B1 VL with L46W, I57V, F70Y
# B22: Clone 16 Fab (Fab, V domains shown)
# VH: B1 VH with T58V, Y60I
# VL: B1 VL with S91Q
# B23: Clone H2-5 Fab (Fab, V domains shown)
# VH: B1 VH with T58Y, V68A, M70I, R72T, T76A, V79A, M81L, E82Q, M105F
# VL: B1 VL
# B24: Clone 2 Fab (Fab, V domains shown)
# VH: B1 VH with D52E, T58I, D61S, V66G, M105W
# VL: B1 VL with S91E
# B25: Clone 46 Fab (Fab, V domains shown)
# VH: B1 VH with D52E, T58V, D61S, M105W
# VL: B1 VL with S91E
# B26: Clone XL3-15 Fab (Fab, V domains shown)
# VH: B1 VH with V66G, V68A, M70I, R72T, T76A, V79A, M81L, E82Q, M105F
# VL: B1 VL with G92R
# B27: Clone A1 Fab (Fab, V domains shown)
# VH: B1 VH with T58L, V66N, M105K
# VL: B1 VL with R24G, S91E
# B28: Clone L8mod Fab (Fab, V domains shown)
# VH: B1 VH with V66G, V68A, M70I, R72T, T76A, V79A, M81L, E82Q, M105V
# VL: B1 VL
# B29: Clone L3-13 Fab (Fab, V domains shown)
# VH: B1 VH with V66G, V68A, M70I, R72T, T76A, V79A, M81L, E82Q, M105F
# VL: B1 VL with S91K
# B30: Clone 53 Fab (Fab, V domains shown)
# VH: B1 VH with D52E, T58L, V66E, M105K
# VL: B1 VL with S91E
# B31: Clone 17L-1 Fab (Fab, V domains shown)
# VH: B1 VH with T58L, V66R
# VL: B1 VL with S91Q
# B32: Clone 52 Fab (Fab, V domains shown)
# VH: B1 VH with D52E, T58I, D61S, V66G, M105W
# VL: B1 VL with R24G, S91E
# B33: Clone X-V Fab (Fab, V domains shown)
# VH: B1 VH with V68A, M70I, R72T, T76A, V79A, M81L, E82Q, M105F
# VL: B1 VL
# B34: Clone 47 Fab (Fab, V domains shown)
# VH: B1 VH with D52E, T58V, V66T, M105W
# VL: B1 VL with S91E
# B35: Clone XL3-10 Fab (Fab, V domains shown)
# VH: B1 VH with V66G, V68A, M70I, R72T, T76A, V79A, M81L, E82Q, M105F
# VL: B1 VL with T96S
# B36: Clone 3-17L V-A Fab (Fab, V domains shown)
# VH: B1 VH with T58L, V66G, M70I, T76A, V79A
# VL: B1 VL with S91Q
# B37: Clone H2-2 Fab (Fab, V domains shown)
# VH: B1 VH with T58S, V68A, M70I, R72T, T76A, V79A, M81L, E82Q, M105F
# VL: B1 VL
# B38: Clone H3-1 Fab (Fab, V domains shown)
# VH: B1 VH with V66G, V68A, M70I, R72T, T76A, V79A, M81L, E82Q, M105L
# VL: B1 VL
# B39: Clone 14 Fab (Fab, V domains shown)
# VH: B1 VH with T58I, V66K
# VL: B1 VL with S91Q
# B40: Clone XL3-6 Fab (Fab, V domains shown)
# VH: B1 VH with V66G, V68A, M70I, R72T, T76A, V79A, M81L, E82Q, M105F
# VL: B1 VL with Q88S
# B41: Clone 23 Fab (Fab, V domains shown)
# VH: B1 VH with T58L, V66N, M105K
# VL: B1 VL with S91E
# B42: Clone 34 Fab (Fab, V domains shown)
# VH: B1 VH with D52E, T58I, V66G, M105W
# VL: B1 VL with S91E
# B43: Clone 17L Fab (Fab, V domains shown)
# VH: B1 VH with T58L
# VL: B1 VL with S91Q
# B44: Clone E1 Fab (Fab, V domains shown)
# VH: B1 VH with D52E, T58L, V66E, M105K
# VL: B1 VL with R24G, S91E
# B45: Clone 3-17L Fab (Fab, V domains shown)
# VH: B1 VH with T58L, V66G, M70I, T76A
# VL: B1 VL with S91Q
# Target: T1, human TL1A (Fitzgerald, Prod. #30R-AT070) (human)
# Test: ELISA
row,binding,Binder
1,binds,B1
2,binds,B2

# Target: T1, human TL1A (Fitzgerald, Prod. #30R-AT070) (human)
# Test: capture lift screen and Fab ELISA on immobilised antigen
row,binding,Binder
1,binds,B3
2,binds,B4
3,binds,B5
4,binds,B6
5,binds,B7
6,binds,B8
7,binds,B9
8,binds,B10
9,binds,B11
10,binds,B12
11,binds,B13
12,binds,B14
13,binds,B15
14,binds,B16
15,binds,B17
16,binds,B18
17,binds,B19
18,binds,B20
19,binds,B21

# Target: T1, human TL1A (Fitzgerald, Prod. #30R-AT070) (human)
# Test: ELISA, both formats (immobilised TL1A; captured Fab with soluble biotinylated TL1A)
row,binding,Binder
1,binds,B22
2,binds,B23
3,binds,B24
4,binds,B25
5,binds,B26
6,binds,B27
7,binds,B28
8,binds,B29
9,binds,B30
10,binds,B31
11,binds,B32
12,binds,B33
13,binds,B34
14,binds,B35
15,binds,B36
16,binds,B37
17,binds,B38
18,binds,B39
19,binds,B40
20,binds,B41
21,binds,B42
22,binds,B43
23,binds,B44
24,binds,B45
